Experimental data: patent EP0223143A2, “Analogs of atrial natriuretic peptides” (CALIFORNIA BIOTECHNOLOGY, INC., priority 1985, dated 1987)
Entries after “also recorded” stand apart in the source; their conditions may differ. Not every detail of the peptide structures is certain; ends, links or a residue may be inferred. Some compounds share one wording; it may come from a single statement. Where a SMILES comes first, the peptide text is derived from it. Bridges are numbered along the chain shown (N, C = ends). [ ]: non-standard residue; d: D form.

Columns and labels:
[1] = system: specific receptor sites on BASM or BAE cells; test: competitive displacement receptor binding assay (Tables IA-IE); parameters: species or system bovine; details: statements in words on Tables IA-IE; displacement of [^125I]-rANP(126-150)
From the text: (§1) An assay has been developed, generally in accordance with the disclosure of Schenk, supra, and Scarborough, R.M. et al., J. Biol. Chem. 261:12960-12964 (1986), which evaluates the ability of ANP analogs to compete with a labeled native ANP for binding to cultured BASM and BAE cells. This native ANP, having the amino acid sequence: [drawing 103] was iodinated on the Carboxy-terminal Y residue and is identified as […]. Analogous "competitive displacement" receptor binding assays are considered commonplace in the art for examining specific ligand-receptor interactions.
(§2) Assuming these ANP analogs act at one or more ANP receptor sites, then increased receptor affinity should reflect increased biological potency.

[2] = molecular target: T1, BASM cell-associated receptors (Bos taurus, UniProt P10730); test: competitive displacement receptor binding assay, BASM cells (Figure 1); parameters: species or system bovine; details: 0.5 nM [^125I]-rANP(126-150), increasing concentrations of unlabeled peptide
T1 construct: endogenous in cells; host or cells: cultured BASM cells
T1 sequence (P10730 42-537): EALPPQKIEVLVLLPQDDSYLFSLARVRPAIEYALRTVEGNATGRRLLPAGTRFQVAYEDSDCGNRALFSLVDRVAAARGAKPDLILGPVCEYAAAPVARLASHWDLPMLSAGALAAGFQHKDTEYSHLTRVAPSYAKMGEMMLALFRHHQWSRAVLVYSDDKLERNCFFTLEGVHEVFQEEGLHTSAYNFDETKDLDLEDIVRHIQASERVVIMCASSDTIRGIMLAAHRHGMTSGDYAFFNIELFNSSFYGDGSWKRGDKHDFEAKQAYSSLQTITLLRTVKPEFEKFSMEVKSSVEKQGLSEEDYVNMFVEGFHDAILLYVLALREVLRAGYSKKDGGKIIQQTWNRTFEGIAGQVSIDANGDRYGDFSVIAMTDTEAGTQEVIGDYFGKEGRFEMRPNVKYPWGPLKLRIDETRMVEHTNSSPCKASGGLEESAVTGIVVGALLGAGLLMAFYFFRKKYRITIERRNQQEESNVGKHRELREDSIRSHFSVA
From the text: as §1, §2

anesthetized rats = test: diuresis in anesthetized rats; assay type: in vivo
Method: In one set of examples, cannulae were placed in the left and right ureters and femoral vein of anesthetized rats and urine was collected from the ureters. Analog peptides were administered via the femoral vein. Prior to infusing the analog peptides, saline was infused for 30 minutes, urine was collected for 6 five minutes baseline periods and urine volume was determined gravimetrically. Following these baseline collection periods, various analog peptides were infused for 30 or 60 minutes and urine volume was measured in five minute periods during infusion and for 60 minutes following infusion (at which time rats were returned to saline). Data was examined by averaging urine flow rates for six five- minute baseline control periods immediately preceding infusion, and comparing values during and after administration of peptides with the "baseline" control values. Responses to peptides are thus evaluated and plotted as the percent of baseline control responses. Specific examples are shown in Figures 2A-H. The error bars at the beginning of the graphs represent baseline values ± standard deviations. Responses to peptides that are substantially above baseline ± SD can thus be interpreted as being statistically significant increases.

SMILES	receptor binding affinity (Ki(app)) [1]	[^125I]-rANP(126-150) binding to BASM cell-associated receptors [2]	urine flow rate (urine volume) (anesthetized rats; infused at 5 µg/min via femoral vein, compared with baseline, Figure 2)	in vivo activity (diuresis) (anesthetized rats; dose not given, Figure 2H)
CC[C@H](C)[C@@H]1NC(=O)[C@H](CCCNC(=N)N)NC(=O)[C@H](CC(=O)O)NC(=O)[C@@H](CCSC)NC(=O)[C@H](CCCNC(=N)N)NC(=O)CNC(=O)CNC(=O)[C@H](Cc2ccccc2)NC(=O)[C@@H](N)CSSC[C@@H](C(N)=O)NC(=O)[C@H](C)NC(=O)CNC1=O [AP113, C-F-G-G-R-[D-M]-D-R-I-G-A-C-NH2] (H-CFGGR[dM]DRIGAC-NH2; disulfide 1-12)	diminish activity in all instances except	–	–	–
CC[C@H](C)[C@@H]1NC(=O)[C@H](CCCNC(=N)N)NC(=O)[C@H](CC(=O)O)NC(=O)[C@H]([C@@H](C)CC)NC(=O)[C@H](CCCNC(=N)N)NC(=O)[C@@H](NC(=O)[C@H](CO)NC(=O)[C@H](CO)NC(=O)[C@@H](N)CCCNC(=N)N)CSSC[C@@H](C(=O)N[C@@H](CC(N)=O)C(=O)N[C@@H](CO)C(=O)N[C@@H](Cc2ccccc2)C(=O)N[C@@H](CCCNC(=N)N)C(=O)N[C@@H](Cc2ccc(O)cc2)C(=O)O)NC(=O)CNC(=O)[C@H](CC(C)C)NC(=O)CNC(=O)[C@H](CO)NC(=O)[C@H](CCC(N)=O)NC(=O)[C@H](C)NC(=O)CNC1=O [AP25, RSSCRIDRIGAQSGLGCNSFRY] (H-RSSCRIDRIGAQSGLGCNSFRY-OH; disulfide 4-17)	equivalent receptor affinities to that of rANP(126-150)	effectively prevent	significantly increased	–
CC[C@H](C)[C@@H]1NC(=O)[C@H](CCCNC(=N)N)NC(=O)[C@H](CC(=O)O)NC(=O)[C@H]([C@@H](C)CC)NC(=O)[C@@H](NC(=O)[C@H](CO)NC(=O)[C@H](CO)NC(=O)[C@@H](N)CCCNC(=N)N)CSSC[C@@H](C(=O)N[C@@H](CC(N)=O)C(=O)N[C@@H](CO)C(=O)N[C@@H](Cc2ccccc2)C(=O)N[C@@H](CCCNC(=N)N)C(=O)N[C@@H](Cc2ccc(O)cc2)C(=O)O)NC(=O)CNC(=O)[C@H](CC(C)C)NC(=O)CNC(=O)[C@H](CO)NC(=O)[C@H](CCC(N)=O)NC(=O)[C@H](C)NC(=O)CNC1=O [AP54, RSSCIDRIGAQSGLGCNSFRY] (H-RSSCIDRIGAQSGLGCNSFRY-OH; disulfide 4-16)	substantially diminished; also recorded: lack significant receptor binding activity	–	–	inactive
